Article PMC10238197, “Deafness‐Associated ADGRV1 Mutation Impairs USH2A Stability through Improper Phosphorylation of WHRN and WDSUB1 Recruitment” (Advanced Science, 2023)
Results are given in words; binding and its absence hold for the method and conditions named. In cells and extracts the contact can be indirect. Some binding calls cover weakened binding; strength is not graded here. Where a sequence is shown, tags or fusion partners need not be part of it.

Legend:
Assay in all cases: FRET or BRET; intermolecular FlAsH-BRET saturation in HEK293 cells: fixed amount of WHRN-Nluc, increasing ADGRV1-FlAsH or USH2A-FlAsH; 2.5 µM FlAsH-EDT2, 5 µM coelenterazine-h; net BRET Em530/Em485
[1] = biological target: T1, WHRN-Nluc (Z1-L) S170A (mouse) (UniProt Q80VW5)
T1 sequence: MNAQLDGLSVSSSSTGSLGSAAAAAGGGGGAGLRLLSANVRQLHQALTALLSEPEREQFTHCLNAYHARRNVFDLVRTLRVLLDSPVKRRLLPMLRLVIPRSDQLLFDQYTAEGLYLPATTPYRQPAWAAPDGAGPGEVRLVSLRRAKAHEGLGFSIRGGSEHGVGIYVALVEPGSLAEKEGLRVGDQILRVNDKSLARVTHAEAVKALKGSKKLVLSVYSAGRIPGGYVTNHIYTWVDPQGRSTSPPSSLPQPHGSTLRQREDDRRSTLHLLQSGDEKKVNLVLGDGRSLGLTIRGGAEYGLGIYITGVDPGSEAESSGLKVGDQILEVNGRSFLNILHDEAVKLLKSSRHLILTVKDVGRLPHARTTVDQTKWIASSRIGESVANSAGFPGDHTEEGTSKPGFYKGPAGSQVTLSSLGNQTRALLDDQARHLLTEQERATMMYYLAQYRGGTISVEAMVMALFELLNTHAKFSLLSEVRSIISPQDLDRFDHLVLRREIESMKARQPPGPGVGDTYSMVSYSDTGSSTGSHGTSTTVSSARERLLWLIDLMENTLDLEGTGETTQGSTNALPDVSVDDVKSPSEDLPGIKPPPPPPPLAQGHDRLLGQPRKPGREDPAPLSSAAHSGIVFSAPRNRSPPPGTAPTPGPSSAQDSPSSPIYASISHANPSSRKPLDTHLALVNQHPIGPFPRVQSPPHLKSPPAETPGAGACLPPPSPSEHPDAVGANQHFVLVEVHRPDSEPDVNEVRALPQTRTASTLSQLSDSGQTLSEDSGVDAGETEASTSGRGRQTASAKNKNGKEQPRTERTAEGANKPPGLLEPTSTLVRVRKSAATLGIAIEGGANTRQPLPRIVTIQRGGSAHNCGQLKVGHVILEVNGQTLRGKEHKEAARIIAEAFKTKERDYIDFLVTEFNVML

[2] = biological target: T2, WHRN-Nluc (Z1-L) H202A (mouse) (UniProt Q80VW5)
T2 sequence: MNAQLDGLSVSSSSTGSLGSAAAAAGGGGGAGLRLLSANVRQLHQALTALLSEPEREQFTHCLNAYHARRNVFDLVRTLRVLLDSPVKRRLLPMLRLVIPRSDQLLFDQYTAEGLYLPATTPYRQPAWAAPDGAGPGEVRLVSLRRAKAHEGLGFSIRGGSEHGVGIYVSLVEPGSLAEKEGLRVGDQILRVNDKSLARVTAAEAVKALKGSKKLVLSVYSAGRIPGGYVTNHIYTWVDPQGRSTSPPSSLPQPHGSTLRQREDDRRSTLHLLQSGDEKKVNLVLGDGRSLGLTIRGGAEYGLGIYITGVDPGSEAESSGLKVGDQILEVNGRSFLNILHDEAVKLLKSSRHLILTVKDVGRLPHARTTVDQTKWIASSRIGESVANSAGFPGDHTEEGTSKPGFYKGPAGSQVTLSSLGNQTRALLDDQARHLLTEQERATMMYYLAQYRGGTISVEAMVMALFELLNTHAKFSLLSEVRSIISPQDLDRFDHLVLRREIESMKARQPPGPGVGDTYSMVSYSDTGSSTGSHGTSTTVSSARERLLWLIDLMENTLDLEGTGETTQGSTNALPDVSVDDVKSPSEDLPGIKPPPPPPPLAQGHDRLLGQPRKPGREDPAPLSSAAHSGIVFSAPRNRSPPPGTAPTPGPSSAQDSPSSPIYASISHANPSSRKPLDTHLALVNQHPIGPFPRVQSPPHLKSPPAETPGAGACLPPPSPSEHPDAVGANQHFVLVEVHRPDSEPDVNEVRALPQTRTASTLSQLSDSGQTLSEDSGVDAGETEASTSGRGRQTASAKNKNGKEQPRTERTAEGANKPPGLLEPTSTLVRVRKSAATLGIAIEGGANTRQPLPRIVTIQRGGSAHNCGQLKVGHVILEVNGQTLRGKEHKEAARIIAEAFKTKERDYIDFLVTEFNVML

[3] = biological target: T3, WHRN-Nluc (Z1-L) K207A (mouse) (UniProt Q80VW5)
T3 sequence: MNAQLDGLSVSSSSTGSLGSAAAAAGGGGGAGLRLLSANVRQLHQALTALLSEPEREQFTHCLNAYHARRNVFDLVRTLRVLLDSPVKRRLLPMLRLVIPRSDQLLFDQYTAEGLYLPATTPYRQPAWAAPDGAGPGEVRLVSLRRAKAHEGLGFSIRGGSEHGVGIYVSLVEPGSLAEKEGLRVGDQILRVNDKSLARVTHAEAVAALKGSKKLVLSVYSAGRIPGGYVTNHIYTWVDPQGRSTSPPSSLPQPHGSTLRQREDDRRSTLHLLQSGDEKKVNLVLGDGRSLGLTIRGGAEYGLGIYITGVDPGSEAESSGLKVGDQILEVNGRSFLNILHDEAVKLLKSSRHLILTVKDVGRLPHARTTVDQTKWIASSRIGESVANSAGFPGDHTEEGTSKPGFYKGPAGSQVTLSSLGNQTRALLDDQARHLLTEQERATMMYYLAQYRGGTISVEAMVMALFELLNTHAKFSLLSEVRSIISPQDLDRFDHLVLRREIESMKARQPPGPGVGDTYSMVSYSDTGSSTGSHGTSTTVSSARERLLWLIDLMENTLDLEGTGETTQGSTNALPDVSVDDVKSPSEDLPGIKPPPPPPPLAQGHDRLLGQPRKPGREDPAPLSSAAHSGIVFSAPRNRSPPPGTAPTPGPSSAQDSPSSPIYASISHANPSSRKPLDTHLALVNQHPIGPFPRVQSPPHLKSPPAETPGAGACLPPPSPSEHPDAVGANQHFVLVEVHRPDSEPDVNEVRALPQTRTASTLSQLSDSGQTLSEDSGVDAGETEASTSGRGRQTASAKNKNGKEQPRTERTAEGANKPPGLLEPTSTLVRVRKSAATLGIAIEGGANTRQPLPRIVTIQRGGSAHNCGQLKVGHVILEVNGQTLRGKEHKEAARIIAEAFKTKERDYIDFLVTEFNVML

- binding [1]: binds
- binding [2]: binds
- binding [3]: binds
B1: USH2A-FlAsH (domain or fragment, UniProt Q2QI47 4819-5193)
chain: PPSGLSPPQVQTLGSRMASVHWTPPLLPNGVIHSYELQLQRACPPDSAPRCPPSHTERKYWGPGHRASLAGLQPNTAYGVQVVAYNEAGSTASGWTNFSTKKEMPQYQALFSVDSNASMVWVDWSGTFLLNGHLKEYVVTDGGRRVYSGLDTTLYIPRMVDKIFFFQVTCTTDIGSVKTPLVQYDAATGSGLVLTTPGEKKGAGTKSTEFYSELWFIMVMAVVGLILLAIFLSLILQRKIHKEPCIRERPPLVPLQKRMTPLSVYPPGETHVGLADTRLPRSGTPMSIRSSQSVSVLRIPSQSQLSHAYSQSSLHRSVSQLMDMADKKVVTEDSLWETIMGHSSGLYVDEEELMNAIKGFSSVTKEHTAFTDTHL
modifications: FlAsH-EDT2 label on the CCPGCC motif
